# Library screening results

Sequences of proteins named here, by UniProt entry; tags and fusion partners are left off.
UniProt E9BF75, entry or part of it: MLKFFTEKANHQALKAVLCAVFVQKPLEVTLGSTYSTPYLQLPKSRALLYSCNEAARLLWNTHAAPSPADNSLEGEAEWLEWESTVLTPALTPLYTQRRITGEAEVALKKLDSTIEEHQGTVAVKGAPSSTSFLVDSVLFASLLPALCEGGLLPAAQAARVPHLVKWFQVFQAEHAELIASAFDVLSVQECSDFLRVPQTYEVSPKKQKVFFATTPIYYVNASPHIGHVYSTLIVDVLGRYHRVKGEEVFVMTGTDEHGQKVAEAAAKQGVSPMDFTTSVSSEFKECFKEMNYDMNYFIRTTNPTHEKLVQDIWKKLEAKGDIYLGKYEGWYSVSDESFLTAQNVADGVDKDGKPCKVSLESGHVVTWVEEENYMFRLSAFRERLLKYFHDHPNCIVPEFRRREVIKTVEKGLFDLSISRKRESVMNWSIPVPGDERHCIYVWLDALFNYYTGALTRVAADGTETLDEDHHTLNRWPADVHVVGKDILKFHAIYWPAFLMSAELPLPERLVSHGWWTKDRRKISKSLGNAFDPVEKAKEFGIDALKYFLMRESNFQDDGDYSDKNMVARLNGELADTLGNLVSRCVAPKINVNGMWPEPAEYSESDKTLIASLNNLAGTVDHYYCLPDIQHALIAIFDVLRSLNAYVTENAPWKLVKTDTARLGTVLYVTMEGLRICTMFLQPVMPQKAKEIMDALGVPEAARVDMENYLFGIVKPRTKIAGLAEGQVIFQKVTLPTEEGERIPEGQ

The values are deposited in ChEMBL (CHEMBL3988442, “University of Dundee, Small-Polar-MMV Screening Library” (2021)).

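Methionyl-tRNA synthetase (putative), Leishmania donovani (UniProt E9BF75). Primary screen of methionyl-tRNA synthetase; the read-out is not stated. The test concentration is not given. Values are per cent inhibition. Size under these conditions: about 68,000 compounds, about 24 of them at 50% or above in at least one test.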

Results are percentages, as filed. How 0% and 100% were set is not recorded. Most values in the screen are low, and negative values occur. The compounds are a random part of those screened.

| structure | Inhibition |
|---|---|
| `Cc1ccccc1CC1(CO)CCCN(c2ncncc2C(C)C)C1` (stereo not given) | 15.47 |
| `CCOC(=O)CN(C)C1CCc2ccccc21` (stereo not given) | 7.104 |
| `Cn1ccc2c(-c3cc(N)nc(N4CCOCC4)n3)ccnc21` | 23.72 |
| `Cn1nc2c(cc1=O)CN(Cc1nc(C3CC3)no1)CC2` | 6.789 |
| `CCN1CC2(CCC1=O)CCN(C(=O)C(O)c1cccc(Cl)c1)CC2` (stereo not given) | 17.01 |
| `CCc1nc(CCNC(=O)Nc2cc(C(N)=O)sc2C)cs1` | 4.878 |
| `CC(C)N1CCCn2c(nc(CNC(=O)c3nccn3C)cc2=O)C1` | 9.408 |
| `CC1CCCN1C1CCN(C(=O)c2cccc(-c3ccoc3)c2)CC1` (stereo not given) | 10.31 |
| `Cc1ccccc1C1(C(=O)N2CCCC(n3cncn3)C2)CC1` (stereo not given) | 12.01 |
| `CCCN(CCC)S(=O)(=O)N(C)Cc1ccncc1` | 15.19 |
| `Cc1nc(C)n(Cc2cccc(NC(=O)NC(C)(CO)C3CC3)c2)n1` (stereo not given) | 0.2762 |
| `O=C1N(c2cncnc2)CCC12CCCN(Cc1ccccn1)C2` (stereo not given) | 8.661 |
| `Cc1csc2c(=O)n3c(nc12)CCN(C(=O)c1ccccn1)CC3` | 0.7059 |
| `COc1cccc(COCC(=O)N2CCN(S(C)(=O)=O)CC2)c1` | 19.67 |
| `O=C(CCc1ccccc1)C1CCCN(C(=O)c2ncc(F)cc2F)C1` (stereo not given) | 14.29 |
| `CC(C)CS(=O)(=O)Nc1ccc2c(c1)OCC(C)(C)C(=O)N2C` | 1.127 |
| `C[C@@H]1CN(C(=O)CCN2CCCC2)CC[C@@]1(O)C1CCOCC1` | 8.505 |
| `CCc1cc(C(=O)N2CCCC2c2nc(C)c(CC)c(O)n2)on1` (stereo not given) | 7.812 |
| `Cc1ccncc1NC(=O)C1CSc2ncc(C)c(=O)n2C1` (stereo not given) | 11.21 |
| `CN(C)C(C(=O)NCC1(Cn2cccn2)CC1)c1ccc(F)cc1` (stereo not given) | 6.516 |
| `CC(=O)N(CCc1ccccc1)CC(=O)Nc1ccccc1C#N` | 14.08 |
| `CCn1cnnc1C1CCN(C(=O)c2cc3c(s2)CCCC3)CC1` | 16.76 |
| `CCCc1cc(N2CCC(NC3CCOCC3)CC2)nc(C)n1` | 4.02 |
| `CCOCC(=O)N1C[C@@H]2COC[C@]2(c2nc(C)no2)C1` | 12.99 |

3 of the entries, repeated:

{"structure": "CCOCC(=O)N1C[C@@H]2COC[C@]2(c2nc(C)no2)C1", "Inhibition": 12.99}
{"structure": "COc1cccc(COCC(=O)N2CCN(S(C)(=O)=O)CC2)c1", "Inhibition": 19.67}
{"structure": "CN(C)C(C(=O)NCC1(Cn2cccn2)CC1)c1ccc(F)cc1", "stereo": "stereo not given", "Inhibition": 6.516}